# Some of the results follow.
# Assays:
# Assay in all cases: glycan array binding signal (z-score within array); higher = stronger binding
# Conditions in all cases: glycan notation: IUPAC condensed, linker removed
# [1] = target: Gal(b1-3)GlcNAc
# Method in brief: (§1)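 The binding signal is a Z-score computed within each array and averaged over linkers. Arrays of the same protein sequence at different concentrations or buffers were also averaged together. Data originate from 3228 arrays in the Consortium for Functional Glycomics database, kept only where the protein sequence was available.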
# [2] = target: Gal(b1-3)GlcNAc(a1-3)Gal(b1-4)GlcNAc
# Method in brief: as §1
# [3] = target: Gal(b1-3)GlcNAc(a1-6)Gal(b1-4)GlcNAc
# Method in brief: as §1
# [4] = target: Gal(b1-3)GlcNAc(b1-2)Man
# Method in brief: as §1
# [5] = target: Gal(b1-3)GlcNAc(b1-2)Man(a1-3)[Gal(b1-3)GlcNAc(b1-2)Man(a1-6)]Man(b1-4)GlcNAc(b1-4)GlcNAc
# Method in brief: as §1
# [6] = target: Gal(b1-3)GlcNAc(b1-2)Man(a1-3)[Gal(b1-3)GlcNAc(b1-2)Man(a1-6)]Man(b1-4)GlcNAc(b1-4)[Fuc(a1-6)]GlcNAc
# Method in brief: as §1
# [7] = target: Gal(b1-3)GlcNAc(b1-2)Man(a1-3)[GlcNAc(b1-4)][Gal(b1-3)GlcNAc(b1-2)Man(a1-6)]Man(b1-4)GlcNAc(b1-4)GlcNAc
# Method in brief: as §1
# [8] = target: Gal(b1-3)GlcNAc(b1-2)[Gal(b1-3)GlcNAc(b1-6)]Man(a1-6)[Gal(b1-3)GlcNAc(b1-2)Man(a1-3)]Man(b1-4)GlcNAc(b1-4)GlcNAc
# Method in brief: as §1
# [9] = target: Gal(b1-3)GlcNAc(b1-3)Gal(b1-3)GlcNAc
# Method in brief: as §1
# [10] = target: Gal(b1-3)GlcNAc(b1-3)Gal(b1-4)Glc
# Method in brief: as §1
# [11] = target: Gal(b1-3)GlcNAc(b1-3)Gal(b1-4)GlcNAc
# Method in brief: as §1
# [12] = target: Gal(b1-3)GlcNAc(b1-3)Gal(b1-4)GlcNAc(b1-2)Man(a1-3)[Gal(b1-3)GlcNAc(b1-3)Gal(b1-4)GlcNAc(b1-2)Man(a1-6)]Man(b1-4)GlcNAc(b1-4)GlcNAc
# Method in brief: as §1
# [13] = target: Gal(b1-3)GlcNAc(b1-3)Gal(b1-4)GlcNAc(b1-2)[Gal(b1-3)GlcNAc(b1-3)Gal(b1-4)GlcNAc(b1-6)]Man(a1-6)[Gal(b1-3)GlcNAc(b1-3)Gal(b1-4)GlcNAc(b1-2)Man(a1-3)]Man(b1-4)GlcNAc(b1-4)[Fuc(a1-6)]GlcNAc
# Method in brief: as §1
# [14] = target: Gal(b1-3)GlcNAc(b1-3)Gal(b1-4)GlcNAc(b1-3)Gal(b1-4)GlcNAc(b1-2)[Gal(b1-3)GlcNAc(b1-3)Gal(b1-4)GlcNAc(b1-3)Gal(b1-4)GlcNAc(b1-6)]Man(a1-6)[Gal(b1-3)GlcNAc(b1-3)Gal(b1-4)GlcNAc(b1-3)Gal(b1-4)GlcNAc(b1-2)Man(a1-3)]Man(b1-4)GlcNAc(b1-4)[Fuc(a1-6)]GlcNAc
# Method in brief: as §1
# [15] = target: Gal(b1-3)GlcNAc(b1-3)Gal(b1-4)GlcNAc(b1-6)[Gal(b1-3)GlcNAc(b1-3)]Gal(b1-4)Glc
# Method in brief: as §1
# [16] = target: Gal(b1-3)GlcNAc(b1-3)Gal(b1-4)[Fuc(a1-3)]GlcNAc
# Method in brief: as §1
# [17] = target: Gal(b1-3)GlcNAc(b1-3)Gal(b1-4)[Fuc(a1-3)]GlcNAc(b1-6)[Gal(b1-3)GlcNAc(b1-3)]Gal(b1-4)Glc
# Method in brief: as §1
# [18] = target: Gal(b1-3)GlcNAc(b1-3)GalNAc
# Method in brief: as §1
# [19] = target: Gal(b1-3)GlcNAc(b1-6)Gal(b1-4)GlcNAc
# Method in brief: as §1
# [20] = target: Gal(b1-3)GlcNAc(b1-6)GalNAc
# Method in brief: as §1
# [21] = target: Gal(b1-3)GlcNAc(b1-6)[Gal(b1-3)]GalNAc
# Method in brief: as §1
# [22] = target: Gal(b1-3)GlcNAc6S
# Method in brief: as §1
# [23] = target: Gal(b1-3)[Fuc(a1-4)]GlcNAc
# Method in brief: as §1
# [24] = target: Gal(b1-3)[Fuc(a1-4)]GlcNAc(b1-2)Man
# Method in brief: as §1
# [25] = target: Gal(b1-3)[Fuc(a1-4)]GlcNAc(b1-2)Man(a1-3)[Gal(b1-3)[Fuc(a1-4)]GlcNAc(b1-2)Man(a1-6)]Man(b1-4)GlcNAc(b1-4)[Fuc(a1-6)]GlcNAc
# Method in brief: as §1
# [26] = target: Gal(b1-3)[Fuc(a1-4)]GlcNAc(b1-3)Gal(b1-3)[Fuc(a1-4)]GlcNAc
# Method in brief: as §1
# [27] = target: Gal(b1-3)[Fuc(a1-4)]GlcNAc(b1-3)Gal(b1-4)GlcNAc
# Method in brief: as §1
# [28] = target: Gal(b1-3)[Fuc(a1-4)]GlcNAc(b1-3)Gal(b1-4)[Fuc(a1-3)]GlcNAc
# Method in brief: as §1
# [29] = target: Gal(b1-3)[Fuc(a1-4)]GlcNAc(b1-6)GalNAc
# Method in brief: as §1
# [30] = target: Gal(b1-3)[GlcNAc(b1-6)]GalNAc
# Method in brief: as §1
# [31] = target: Gal(b1-3)[Neu5Ac(a2-6)]GalNAc
# Method in brief: as §1
# [32] = target: Gal(b1-3)[Neu5Ac(a2-6)]GlcNAc(b1-4)Gal(b1-4)Glc
# Method in brief: as §1
# [33] = target: Gal(b1-3)[Neu5Ac(a2-6)]GlcNAc(b1-6)Gal(b1-4)Glc
# Method in brief: as §1
# [34] = target: Gal(b1-3)[Neu5Ac(b2-6)]GalNAc
# Method in brief: as §1
# [35] = target: Gal(b1-4)Gal
# Method in brief: as §1
# [36] = target: Gal(b1-4)GalNAc(a1-3)[Fuc(a1-2)]Gal(b1-4)GlcNAc
# Method in brief: as §1
# [37] = target: Gal(b1-4)GalNAc(b1-3)[Fuc(a1-2)]Gal(b1-4)GlcNAc
# Method in brief: as §1
# [38] = target: Gal(b1-4)Glc
# Method in brief: as §1
binder,measurement,setting,value
"LlpA1 (Pseudomonas fluorescens), Q4KHC3 (protein) MGSSHHHHHHSSGLVPRGSHMAWIRYDFTDNGSSVLPARYYMAPNQYLQSPNKRFKLLFQADGNLALYDGAQLAWVADQNTPFTNVSKGNKKDPMMVFMNYGFVLDDPLRGRIWSTTPSDPTMGSREDASLRAFTQVQDDGNIVTVDTIPHWYAPNGRVFTPAVGAAMIIGGTTELVPGQFYSAGEHSLVFQGDGNLVVYGPNSSVIWATYTQNKGGVRCVMQEDGNLVIYAANNGVVWQSGTGGHPGATIRLQANGSFTIVTERPVWARFGYTPTIKPPRVFYPDHKWKTGSYTWNNVF",glycan array binding signal (z-score),[1],-0.679
same,glycan array binding signal (z-score),[2],-0.638
same,glycan array binding signal (z-score),[3],0.492
same,glycan array binding signal (z-score),[4],-0.27
same,glycan array binding signal (z-score),[5],0.473
same,glycan array binding signal (z-score),[6],0.418
same,glycan array binding signal (z-score),[7],1.38
same,glycan array binding signal (z-score),[8],2.08
same,glycan array binding signal (z-score),[9],0.085
same,glycan array binding signal (z-score),[10],-0.576
same,glycan array binding signal (z-score),[11],-0.593
same,glycan array binding signal (z-score),[12],0.448
same,glycan array binding signal (z-score),[13],0.631
same,glycan array binding signal (z-score),[14],1.85
same,glycan array binding signal (z-score),[15],-0.524
same,glycan array binding signal (z-score),[16],-0.74
same,glycan array binding signal (z-score),[17],-0.162
same,glycan array binding signal (z-score),[18],-0.529
same,glycan array binding signal (z-score),[19],-0.035
same,glycan array binding signal (z-score),[20],0.456
same,glycan array binding signal (z-score),[21],0.763
same,glycan array binding signal (z-score),[22],-0.168
same,glycan array binding signal (z-score),[23],-0.2
same,glycan array binding signal (z-score),[24],0.242
same,glycan array binding signal (z-score),[25],0.668
same,glycan array binding signal (z-score),[26],-0.542
same,glycan array binding signal (z-score),[27],-0.53
same,glycan array binding signal (z-score),[28],-0.172
same,glycan array binding signal (z-score),[29],1.02
same,glycan array binding signal (z-score),[30],-0.107
same,glycan array binding signal (z-score),[31],-0.323
same,glycan array binding signal (z-score),[32],-0.576
same,glycan array binding signal (z-score),[33],-0.705
same,glycan array binding signal (z-score),[34],-0.183
same,glycan array binding signal (z-score),[35],-0.15
same,glycan array binding signal (z-score),[36],-0.607
same,glycan array binding signal (z-score),[37],-0.728
same,glycan array binding signal (z-score),[38],-0.34

# Part of the list above, with bars between the fields.
binder | measurement | setting | value
LlpA1 (Pseudomonas fluorescens), Q4KHC3 (protein) MGSSHHHHHHSSGLVPRGSHMAWIRYDFTDNGSSVLPARYYMAPNQYLQSPNKRFKLLFQADGNLALYDGAQLAWVADQNTPFTNVSKGNKKDPMMVFMNYGFVLDDPLRGRIWSTTPSDPTMGSREDASLRAFTQVQDDGNIVTVDTIPHWYAPNGRVFTPAVGAAMIIGGTTELVPGQFYSAGEHSLVFQGDGNLVVYGPNSSVIWATYTQNKGGVRCVMQEDGNLVIYAANNGVVWQSGTGGHPGATIRLQANGSFTIVTERPVWARFGYTPTIKPPRVFYPDHKWKTGSYTWNNVF | glycan array binding signal (z-score) | [13] | 0.631
same | glycan array binding signal (z-score) | [24] | 0.242
same | glycan array binding signal (z-score) | [38] | -0.34

# From the supplement of paper PMC8728848
